The record followed here is patent US20250381169A1, “METHODS FOR TREATING RENAL DISEASE” (Arizona Board of Regents on Behalf of the University of …, priority 2022, published 2025).

For one series, the system named is Db/db mice. Nature of the series: db/db mouse model of diabetic kidney disease. In kind it is in vivo. The conditions noted are these: FIG. 14; n=6. As for the experimental part:
Db/db and nondiabetic (db/m) mice (10 wk old) were treated with MC16 or vehicle for 3 wk and euthanized.

Series [1] relates to aged mouse kidneys (renal cortex). Nature of the series: Global metabolomics of renal cortex in aged mice. In kind it is in vivo. As for the experimental part:
Aged 22-month-old male C57B/6J mice were administered 1.0 mg/kg of MC16 or normal saline every other day over a 21-day interval (n=8-9/group). Seven-month-old C57B/6J male mice (controls) were administered normal saline every other day over a 21-day interval (n=7). Kidneys were harvested and snap frozen in liquid nitrogen. Renal cortex biopsies were analyzed by Metabolon for global metabolomic analyses. Briefly, samples were processed and divided into four fractions: two for analysis by RP/UPLC-MS/MS with (+) ion mode electrospray ionization (IMESI), one for RP/UPLC-MS/MS with (−) IMESI, and one for HILIC/UPLC-MS/MS with (−) IMESI. […] A p-value of p≤0.05 and a false discovery rate of q<0.10 were utilized to identify global metabolite alteration and correct for multiple comparisons, respectively.

[2] abbreviates: MC16-treated 'old' mice vs saline-treated 'old' mice.
[3] abbreviates: MC16-treated 'old' mice vs saline-treated 'young' control mice.

With `CCN1C(=O)C(Cc2cccc(OC)c2O)(OC(=O)N(C)C)c2cc(Cl)ccc21` (stereo not shown) [MC16, 5-chloro-1-ethyl-3-(2-hydroxy-3-methoxybenzyl)-2-oxoindolin-3-yl dimethylcarbamate], in the series on Db/db mice, the weight entry was “weight loss”. The BCs decreased is listed as 68 BCs in series [1] (setting [2]) and 129 BCs in series [1] (setting [3]). Further, the BCs increased is on record as 72 BCs in series [1] (setting [2]) and 214 BCs in series [1] (setting [3]). In addition, the “biochemicals (BCs) statistically different” value in series [1] (setting [2]) came out at 140 BCs; in series [1] (MC16-treated 'old' mice vs saline-treated 'young' control mice, 1.0 mg/kg every other day, 21 days, 1,010 BCs detected) it was 343 BCs.
